In PubChem BioAssay AID1508600 (Functional Genomics Laboratory (NCATS/FGL), 2020) one finds z-score data, which are given here for 68 sequences.

The whole screen tested about 53,000 sequences, of which about 3,700 (7%) were called active.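 Rule for the calls: active = gene knockdowns whose robust z-score for IL-1 alpha signal is at least 2 or at most -2, so actives lie on both sides; inactive = the rest.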 The list shows a part of the results.

The nature of the assay: Components of the Cytosolic LPS Sensing Pathway: Gene Identification via Genome-wide siRNA Screen.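 Note: robust z of the log signal after scaling to non-targeting control siRNA wells of the plate.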 As to conditions: RAW264.7 macrophages, IL-1a HTRF, actives lie on both sides, screened at 100 nM (by protocol), cells primed 5 h with Pam3CSK4 first. The method, boiled down:
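Cells (RAW264.7, 1×10^4 per well) were transfected with siRNA at 100 nM and cultured 48h at 37 degrees C. Pam3CSK4 was added for 5 hours; LipidA transfection followed for 24 hour. IL-1a was then measured by HTRF.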
For orientation: In TR-FRET formats the signal depends on donor and acceptor labels being close together.
For GGUGCUGAACUACAUGUACTT against Zbtb14, the z-score was inactive: 1.46.
To CGGCAACUUCUUCAACAUATT against Fitm1 belongs inactive: 0.0142; to GGUAAAAGACUAAAGAAGATT against Coch, inactive: -0.485.
Regarding GGUCAUCUACCAACUCAGATT against Ifi202b, the z-score was inactive: -0.296.
Under GCAAUAGACAUUUAAAGCATT against Pdlim3 stands inactive: 0.142.
On to CCUAACCACUACCUUAUACTT against H2-DMa, for which the z-score is active: 2.43.
Under GGAAAAAGCCUAACUAUGATT against Ccnl1 stands inactive: -0.7.
To GGAUGUCUCGGAACUAAGGTT against Med28 belongs inactive: -0.571; to GCUACAUCGUUCGAGCUAGTT against Cyc1, inactive: 0.168; to GGCCAAUGAGAACAGCCUGTT against Ndst1, inactive: -1.24.
For the sequence GGUUUCUUGCCAAGAAAUUTT against Asic5, the z-score was inactive: -0.359.
Consider GGUGAUGUGCUCCGGUUUATT against Mrs2, for which the z-score was inactive: 0.0701.
As for GGGAGUUUGAUUCUGACUCTT against Ank3, the z-score is inactive: -0.264.
Under GCGAAUCUUGGUUAAGCCGTT against Hook1 stands inactive: 0.194; under GCCUUUAUCUACCAUUACUTT against Arfgap2, inactive: -1.22; under GGACAAUUCCAGUCAAUAATT against Ccdc115, inactive: -1.01.
To GCAGAGAUACCUAUCAAAGTT against Angptl4 belongs inactive: 1.16.
To GGGAGAUGUUACAACUCAGTT against Sod2 belongs inactive: 1.89; to GGCUUGAAGCCCUAGUACUTT against Prss30, active: 2.46; to GCCUCACAUUGUAGGAAUCTT against Ecsit, inactive: -0.27.
For the sequence GGAAACUGGAUCAAACCAUTT against Smarcd3, the z-score is inactive: -0.707.
In the case of GGGCUUGAGAACAACCAGATT against Adamdec1, the z-score was inactive: -0.519.
To GCAAGAGCUGAGUACUCUGTT against Ahsp belongs inactive: -0.522.
For the sequence GGCCGCGUGUAAAAAGGUUTT against Haspin, the z-score is inactive: -1.85.
As for GCUUCUAGCCUGUAUUGCCTT against Rps8, the z-score was inactive: 0.31.
Under GCUACAUCAAGGAAUUACUTT against Gramd1a stands inactive: 0.297; under GGUUGGUCUCCUCUUCAUATT against Psmd10, inactive: 1.09; under GGAGAAGGAGCUGGAAACGTT against Cttn, inactive: 0.645.
Regarding “CCAUAUAGAUCAUCUGUUCTT against 4930470P17Rik”, the z-score is inactive: -0.442.
On to GGGAAAUGUUGAUAAUAAGTT against Morf4l2, for which the z-score is inactive: -1.87.
Regarding CCCUUUACAUUACUCUAGCTT against Olfr715, the z-score is inactive: 0.141.
To GCGGUCAAAUGCAACAAACTT against Fabp5 belongs inactive: -0.33; to GAAUAUCCGCACACAAAGCTT against Olfr1356, inactive: -1.08; to GCCAUUCACGACCCACUACTT against Olfr1095, inactive: -0.102.
To GCGAUCUAGUGAAGAUGUGTT against Rapgef4 belongs inactive: -0.82.
As for GGAAGACUGCACAGAUGUGTT against Ramp1, the z-score was inactive: -0.0448.
In the case of “GGAAAGACUAUGCCCAUCUTT against 4930474M22Rik”, the z-score is inactive: 0.984.
To CCACAUCAAGUCUAUCAUCTT against Ryr1 belongs inactive: -1.19; to GCCGGUCCUUAGAGUUGUUTT against Olfr506, inactive: -0.67.
As for GGAGUACAUUCCCUCUACCTT against Nat8f1, the z-score was inactive: 1.
To GCUAAAGUUGAUUGGAGAGTT against Rps9 belongs inactive: -0.262; to GGUUAAGCUACAAAACAACTT against Golm2, inactive: -1.01.
For the sequence GGUGAAGAAUCCACCUGAUTT against Mpzl2, the z-score was inactive: -0.464.
GGAGAAAUUAGAGUGAUCGTT against Pcdha1: the z-score is inactive: -0.698.
On to GGCAGCGAAAAGUCAGAUGTT against Sars, for which the z-score was inactive: 1.52.
Under GGAGGUGAACCAUAGAGAGTT against Csrnp2 stands inactive: 1.12.
Consider GGAGUAUCUGCUGUUCAGUTT against Gabpb1, for which the z-score is inactive: -0.267.
To GGAGGAAGACCUUCAGAGATT against Ell2 belongs inactive: -0.842.
Take AGGAAUGCCCAGGUCUCAGTT against Lst1: the z-score was inactive: -1.07.
For GGUUUGAGGAGUUAGGUUCTT against Sdhd, the z-score is inactive: -0.488.
As to GGGCACAGACAUGUUUGAGTT against Padi3, the z-score is inactive: -1.35.
Consider GGAAAUGACCAAAGAGGCUTT against Vash1, for which the z-score is inactive: -1.21.
On to GCUCUUCUUACCACUGUAGTT against Wdfy3, for which the z-score was inactive: 1.88.
Consider GGUGCUGAACAAGACCAAGTT against Cyp27a1, for which the z-score is inactive: 1.95.
To GGAACAAGCCCAAGAAGAATT against Mxd1 belongs inactive: -0.79; to GGUUUUCUCACCAUUAUUGTT against Asb13, inactive: -0.617.
Turning to GCUAAGUAACUCUUUUAGGTT against Clock, the z-score is inactive: -0.274.
Under GCAACUGCUUCUAAUAAGATT against P3h3 stands inactive: 0.674; under GGCACUUCACAGACUUAGUTT against Selp, inactive: -0.682; under GGCCCUCUGAGAUUAAUGUTT against Nfkbid, active: 2.58.
Under CGAGUUUGAGUACCUGAAATT against Akt1 stands inactive: -0.291.
For the sequence CCUGCAUCGUACGCUACUUTT against Pcgf2, the z-score is inactive: -1.83.
To CCCUGACCUAUUAAAAGAUTT against Cyp2b19 belongs inactive: 0.82.
Under GCUUAUUUCGCCUAUGUGGTT against Slc24a2 stands inactive: -1.11.
To GGCACUUCAACAGCAGUUATT against Cep295 belongs inactive: -1.27; to GGAGACUUUCAGGAGAUUUTT against Carnmt1, inactive: 1.29.
For GGCUGUCGUCAUUGAAGGATT against Ankrd27, the z-score is inactive: -0.771.
Under GGCUGUUUGCCAAAAAAAATT against Ppp1r16a stands inactive: -0.36.
